Measurements taken from ChEMBL document CHEMBL5465560, “Selectivity Literature for EUbOPEN Chemogenomic Library” (2024).

Protein sequences, listed by entry. Tags and fused reporters are not part of them. Lines headed by an entry give the natural chain unless they say otherwise; changes in a name come on top.
UniProt Q04912, whole entry: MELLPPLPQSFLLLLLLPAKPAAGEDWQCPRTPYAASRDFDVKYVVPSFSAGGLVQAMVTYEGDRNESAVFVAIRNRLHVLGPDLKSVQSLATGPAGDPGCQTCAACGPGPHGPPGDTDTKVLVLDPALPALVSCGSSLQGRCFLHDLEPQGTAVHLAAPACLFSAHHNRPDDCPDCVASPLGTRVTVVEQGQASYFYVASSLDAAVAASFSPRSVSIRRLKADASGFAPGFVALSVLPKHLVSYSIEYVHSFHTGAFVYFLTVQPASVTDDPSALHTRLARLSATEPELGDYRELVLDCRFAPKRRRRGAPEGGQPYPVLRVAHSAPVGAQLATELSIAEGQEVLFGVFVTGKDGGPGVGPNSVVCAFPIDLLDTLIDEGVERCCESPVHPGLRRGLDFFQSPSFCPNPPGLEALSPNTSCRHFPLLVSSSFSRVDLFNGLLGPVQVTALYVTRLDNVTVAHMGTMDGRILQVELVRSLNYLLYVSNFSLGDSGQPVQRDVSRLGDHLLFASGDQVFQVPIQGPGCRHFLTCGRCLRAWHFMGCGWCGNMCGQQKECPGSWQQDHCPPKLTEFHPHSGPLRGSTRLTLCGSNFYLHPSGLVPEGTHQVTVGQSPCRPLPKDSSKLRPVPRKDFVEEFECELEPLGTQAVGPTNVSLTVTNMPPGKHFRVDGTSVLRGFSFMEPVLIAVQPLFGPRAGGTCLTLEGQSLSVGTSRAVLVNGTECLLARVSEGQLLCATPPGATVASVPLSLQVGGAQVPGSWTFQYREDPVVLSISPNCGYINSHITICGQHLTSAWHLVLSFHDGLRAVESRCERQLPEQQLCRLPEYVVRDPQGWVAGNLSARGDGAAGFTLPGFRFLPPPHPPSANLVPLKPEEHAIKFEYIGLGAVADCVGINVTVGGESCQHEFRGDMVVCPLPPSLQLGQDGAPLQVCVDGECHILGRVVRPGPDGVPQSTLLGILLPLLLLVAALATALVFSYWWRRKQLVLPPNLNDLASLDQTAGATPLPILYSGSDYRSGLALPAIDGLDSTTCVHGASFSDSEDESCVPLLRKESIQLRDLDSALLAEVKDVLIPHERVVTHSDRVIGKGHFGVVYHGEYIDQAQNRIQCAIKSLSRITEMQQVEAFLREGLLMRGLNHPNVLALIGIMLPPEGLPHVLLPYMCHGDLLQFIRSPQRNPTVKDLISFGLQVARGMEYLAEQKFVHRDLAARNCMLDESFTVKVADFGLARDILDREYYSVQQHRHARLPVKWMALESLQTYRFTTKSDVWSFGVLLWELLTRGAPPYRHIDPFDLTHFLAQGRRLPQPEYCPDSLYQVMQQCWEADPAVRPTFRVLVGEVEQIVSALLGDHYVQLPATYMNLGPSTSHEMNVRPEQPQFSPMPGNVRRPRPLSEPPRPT
UniProt Q16659, whole entry: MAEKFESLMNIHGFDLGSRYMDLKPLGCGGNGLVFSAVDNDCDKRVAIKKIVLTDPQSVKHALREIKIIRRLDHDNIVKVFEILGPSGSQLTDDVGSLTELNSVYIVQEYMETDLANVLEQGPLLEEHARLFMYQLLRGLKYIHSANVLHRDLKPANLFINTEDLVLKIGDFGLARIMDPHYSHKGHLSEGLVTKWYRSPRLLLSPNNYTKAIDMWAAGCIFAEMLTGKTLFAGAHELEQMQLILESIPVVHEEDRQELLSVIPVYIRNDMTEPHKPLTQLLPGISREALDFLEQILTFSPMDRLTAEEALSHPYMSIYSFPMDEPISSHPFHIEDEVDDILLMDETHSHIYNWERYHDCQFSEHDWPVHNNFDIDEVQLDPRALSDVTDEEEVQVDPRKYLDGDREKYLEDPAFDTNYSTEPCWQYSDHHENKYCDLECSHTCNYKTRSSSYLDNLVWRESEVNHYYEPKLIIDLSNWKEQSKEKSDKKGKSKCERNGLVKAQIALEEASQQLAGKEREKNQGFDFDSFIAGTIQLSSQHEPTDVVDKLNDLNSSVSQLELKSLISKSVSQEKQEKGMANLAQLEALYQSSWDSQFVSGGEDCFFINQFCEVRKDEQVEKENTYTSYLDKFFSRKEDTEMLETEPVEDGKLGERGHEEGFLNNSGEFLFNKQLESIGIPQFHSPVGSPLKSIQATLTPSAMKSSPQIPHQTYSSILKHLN
UniProt Q00532: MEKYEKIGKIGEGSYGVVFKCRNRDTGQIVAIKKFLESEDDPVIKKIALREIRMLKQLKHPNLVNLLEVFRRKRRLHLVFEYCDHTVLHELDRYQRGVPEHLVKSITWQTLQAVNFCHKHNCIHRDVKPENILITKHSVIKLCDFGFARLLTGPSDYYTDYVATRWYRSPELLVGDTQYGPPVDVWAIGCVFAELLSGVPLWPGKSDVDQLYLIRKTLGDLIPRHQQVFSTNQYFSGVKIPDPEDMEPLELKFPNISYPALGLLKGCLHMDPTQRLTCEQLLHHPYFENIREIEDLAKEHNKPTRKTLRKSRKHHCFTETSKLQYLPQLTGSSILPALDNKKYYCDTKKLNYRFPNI
UniProt O75582, whole entry, looked up: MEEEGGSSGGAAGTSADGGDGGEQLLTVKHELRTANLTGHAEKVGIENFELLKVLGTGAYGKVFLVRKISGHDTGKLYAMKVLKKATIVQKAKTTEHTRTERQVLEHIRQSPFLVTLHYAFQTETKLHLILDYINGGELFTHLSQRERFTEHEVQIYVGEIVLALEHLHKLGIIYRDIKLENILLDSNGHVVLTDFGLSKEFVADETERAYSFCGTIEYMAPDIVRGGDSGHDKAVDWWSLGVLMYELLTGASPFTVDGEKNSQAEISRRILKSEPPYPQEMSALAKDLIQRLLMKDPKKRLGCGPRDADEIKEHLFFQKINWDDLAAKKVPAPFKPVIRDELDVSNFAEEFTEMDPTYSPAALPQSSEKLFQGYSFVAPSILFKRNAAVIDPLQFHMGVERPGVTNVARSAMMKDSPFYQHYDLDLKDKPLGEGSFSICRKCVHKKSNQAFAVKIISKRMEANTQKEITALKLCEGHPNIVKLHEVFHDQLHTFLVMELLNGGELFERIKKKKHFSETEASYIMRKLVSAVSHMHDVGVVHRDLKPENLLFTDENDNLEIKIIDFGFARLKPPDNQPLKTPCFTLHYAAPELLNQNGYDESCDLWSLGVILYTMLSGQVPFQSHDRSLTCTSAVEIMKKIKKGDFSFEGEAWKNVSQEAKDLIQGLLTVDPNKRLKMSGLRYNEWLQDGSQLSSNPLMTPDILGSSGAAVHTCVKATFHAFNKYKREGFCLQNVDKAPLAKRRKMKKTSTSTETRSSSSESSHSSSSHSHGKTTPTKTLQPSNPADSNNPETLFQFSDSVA
UniProt Q8IY84: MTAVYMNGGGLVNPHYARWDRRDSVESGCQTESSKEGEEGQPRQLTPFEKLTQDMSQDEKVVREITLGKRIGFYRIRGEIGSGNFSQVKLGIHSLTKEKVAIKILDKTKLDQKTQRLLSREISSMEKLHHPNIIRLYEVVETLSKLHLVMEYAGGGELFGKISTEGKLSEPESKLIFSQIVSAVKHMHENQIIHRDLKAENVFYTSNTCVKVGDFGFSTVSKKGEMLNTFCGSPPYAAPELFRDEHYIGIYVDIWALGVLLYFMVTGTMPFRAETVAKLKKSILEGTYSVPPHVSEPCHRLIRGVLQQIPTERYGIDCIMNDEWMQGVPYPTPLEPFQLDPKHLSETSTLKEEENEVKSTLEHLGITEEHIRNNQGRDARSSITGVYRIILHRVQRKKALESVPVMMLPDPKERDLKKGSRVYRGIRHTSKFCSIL
UniProt Q9H1R3: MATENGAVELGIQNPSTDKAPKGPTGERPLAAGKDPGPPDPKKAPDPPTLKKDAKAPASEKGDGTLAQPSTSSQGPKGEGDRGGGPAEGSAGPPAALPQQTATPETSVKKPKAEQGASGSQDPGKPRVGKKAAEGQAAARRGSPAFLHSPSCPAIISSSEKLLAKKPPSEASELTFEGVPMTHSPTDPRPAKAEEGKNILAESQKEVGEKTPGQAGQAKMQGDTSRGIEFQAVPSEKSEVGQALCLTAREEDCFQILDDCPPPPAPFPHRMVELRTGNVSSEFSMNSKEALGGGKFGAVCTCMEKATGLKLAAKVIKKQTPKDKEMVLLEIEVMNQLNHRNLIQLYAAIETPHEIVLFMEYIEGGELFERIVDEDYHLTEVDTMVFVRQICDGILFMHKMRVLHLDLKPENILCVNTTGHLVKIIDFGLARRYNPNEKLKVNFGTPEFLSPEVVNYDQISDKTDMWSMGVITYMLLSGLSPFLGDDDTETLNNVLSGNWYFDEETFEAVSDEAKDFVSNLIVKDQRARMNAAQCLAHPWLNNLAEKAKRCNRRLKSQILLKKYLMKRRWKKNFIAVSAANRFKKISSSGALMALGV
UniProt Q6ZN16: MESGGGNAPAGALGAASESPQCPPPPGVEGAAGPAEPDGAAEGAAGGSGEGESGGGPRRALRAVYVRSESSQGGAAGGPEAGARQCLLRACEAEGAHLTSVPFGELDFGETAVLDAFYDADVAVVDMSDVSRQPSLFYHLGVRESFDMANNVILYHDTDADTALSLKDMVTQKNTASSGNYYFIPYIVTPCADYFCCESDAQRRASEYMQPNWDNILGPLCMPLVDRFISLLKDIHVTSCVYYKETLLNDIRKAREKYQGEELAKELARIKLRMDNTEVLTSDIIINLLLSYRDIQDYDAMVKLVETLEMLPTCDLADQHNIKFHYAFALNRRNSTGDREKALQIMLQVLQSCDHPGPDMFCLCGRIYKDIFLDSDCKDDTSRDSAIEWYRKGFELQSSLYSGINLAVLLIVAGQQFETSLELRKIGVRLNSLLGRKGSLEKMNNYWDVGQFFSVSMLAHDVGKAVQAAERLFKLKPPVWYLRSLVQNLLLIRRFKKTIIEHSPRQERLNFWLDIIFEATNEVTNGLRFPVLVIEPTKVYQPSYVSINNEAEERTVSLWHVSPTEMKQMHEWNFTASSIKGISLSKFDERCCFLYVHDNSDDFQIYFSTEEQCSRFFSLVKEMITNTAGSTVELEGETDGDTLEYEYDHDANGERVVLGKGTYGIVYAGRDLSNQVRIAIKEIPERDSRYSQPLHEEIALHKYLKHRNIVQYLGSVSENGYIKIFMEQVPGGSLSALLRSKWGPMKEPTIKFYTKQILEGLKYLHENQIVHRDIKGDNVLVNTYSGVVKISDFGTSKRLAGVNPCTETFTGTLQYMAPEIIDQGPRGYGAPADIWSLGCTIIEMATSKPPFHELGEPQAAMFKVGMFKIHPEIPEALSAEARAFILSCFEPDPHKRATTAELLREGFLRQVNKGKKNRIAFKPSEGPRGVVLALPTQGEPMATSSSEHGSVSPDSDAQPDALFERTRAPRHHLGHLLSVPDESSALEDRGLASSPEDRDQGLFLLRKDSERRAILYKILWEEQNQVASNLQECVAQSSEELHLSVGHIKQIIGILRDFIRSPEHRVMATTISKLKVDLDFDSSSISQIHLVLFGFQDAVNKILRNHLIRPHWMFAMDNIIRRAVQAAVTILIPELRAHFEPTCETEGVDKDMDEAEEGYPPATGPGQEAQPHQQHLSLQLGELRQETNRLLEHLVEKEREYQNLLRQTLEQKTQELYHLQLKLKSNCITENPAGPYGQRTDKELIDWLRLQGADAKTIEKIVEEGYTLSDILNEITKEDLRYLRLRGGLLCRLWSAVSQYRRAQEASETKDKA
UniProt Q9UKI8: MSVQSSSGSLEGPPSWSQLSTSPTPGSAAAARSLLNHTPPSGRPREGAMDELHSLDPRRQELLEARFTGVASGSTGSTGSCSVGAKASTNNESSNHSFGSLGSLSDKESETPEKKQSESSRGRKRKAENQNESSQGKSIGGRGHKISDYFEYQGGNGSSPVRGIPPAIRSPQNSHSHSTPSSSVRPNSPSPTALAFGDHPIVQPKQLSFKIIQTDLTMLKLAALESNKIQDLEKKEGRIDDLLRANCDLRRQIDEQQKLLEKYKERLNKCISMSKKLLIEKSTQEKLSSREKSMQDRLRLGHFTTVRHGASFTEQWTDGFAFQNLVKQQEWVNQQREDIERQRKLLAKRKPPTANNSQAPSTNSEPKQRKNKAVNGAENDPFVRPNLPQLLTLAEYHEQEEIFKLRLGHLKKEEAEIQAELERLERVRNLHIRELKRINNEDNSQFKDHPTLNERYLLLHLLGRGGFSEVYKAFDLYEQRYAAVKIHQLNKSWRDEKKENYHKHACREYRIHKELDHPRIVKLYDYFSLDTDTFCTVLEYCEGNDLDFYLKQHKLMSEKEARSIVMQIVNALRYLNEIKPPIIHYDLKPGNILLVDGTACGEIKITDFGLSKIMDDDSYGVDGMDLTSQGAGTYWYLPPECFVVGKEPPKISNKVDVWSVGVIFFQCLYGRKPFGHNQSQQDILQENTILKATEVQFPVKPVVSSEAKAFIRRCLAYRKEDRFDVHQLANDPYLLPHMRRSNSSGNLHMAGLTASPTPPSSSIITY

Experiments:
Details in all cases: at 1 µM
[1] = target: Death-associated protein kinase 2 (Homo sapiens) (UniProt Q9UIK4); assay: Selectivity interaction (KinomeScan (DiscoverX)) EUB0001581a DAPK2
[2] = target: Macrophage-stimulating protein receptor (Homo sapiens) (UniProt Q04912); assay: Selectivity interaction (KinomeScan (DiscoverX)) EUB0001581a MST1R
[3] = target: Casein kinase I isoform epsilon (Homo sapiens, UniProt P49674); assay: Selectivity interaction (KinomeScan (DiscoverX)) EUB0001581a CSNK1E
[4] = target: Dual specificity mitogen-activated protein kinase kinase 7 (Homo sapiens) (UniProt O14733); assay: Selectivity interaction (KinomeScan (DiscoverX)) EUB0001581a MAP2K7
[5] = target: Serine/threonine-protein kinase DCLK1 (Homo sapiens) (UniProt O15075); assay: Selectivity interaction (KinomeScan (DiscoverX)) EUB0001581a DCLK1
[6] = target: Phosphorylase b kinase gamma catalytic chain, skeletal muscle/heart isoform (Homo sapiens) (UniProt Q16816); assay: Selectivity interaction (KinomeScan (DiscoverX)) EUB0001581a PHKG1
[7] = target: Mitogen-activated protein kinase 6 (Homo sapiens) (UniProt Q16659); assay: Selectivity interaction (KinomeScan (DiscoverX)) EUB0001581a MAPK6
[8] = target: Tyrosine-protein kinase TXK (Homo sapiens) (UniProt P42681); assay: Selectivity interaction (KinomeScan (DiscoverX)) EUB0001581a TXK
[9] = target: Aurora kinase A (Homo sapiens) (UniProt O14965); assay: Selectivity interaction (KinomeScan (DiscoverX)) EUB0001581a STK6
[10] = target: Cyclin-dependent kinase-like 1 (Homo sapiens) (UniProt Q00532); assay: Selectivity interaction (KinomeScan (DiscoverX)) EUB0001581a CDKL1
[11] = target: Serine/threonine-protein kinase ICK (Homo sapiens) (UniProt Q9UPZ9); assay: Selectivity interaction (KinomeScan (DiscoverX)) EUB0001581a ICK
[12] = target: Serine/threonine-protein kinase MRCK gamma (Homo sapiens) (UniProt Q6DT37)
[13] = target: Tyrosine-protein kinase ITK/TSK (Homo sapiens) (UniProt Q08881); assay: Selectivity interaction (KinomeScan (DiscoverX)) EUB0001581a ITK
[14] = target: Serine/threonine-protein kinase ULK1 (Homo sapiens) (UniProt O75385); assay: Selectivity interaction (KinomeScan (DiscoverX)) EUB0001581a ULK1
[15] = target: MAP kinase-activated protein kinase 5 (Homo sapiens) (UniProt Q8IW41); assay: Selectivity interaction (KinomeScan (DiscoverX)) EUB0001581a MAPKAPK5
[16] = target: Serine/threonine-protein kinase TAO1 (Homo sapiens) (UniProt Q7L7X3); assay: Selectivity interaction (KinomeScan (DiscoverX)) EUB0001581a TAOK1
[17] = target: Cyclin-dependent kinase-like 2 (Homo sapiens) (UniProt Q92772); assay: Selectivity interaction (KinomeScan (DiscoverX)) EUB0001581a CDKL2
[18] = target: Serine/threonine-protein kinase PAK 4 (Homo sapiens, UniProt O96013); assay: Selectivity interaction (KinomeScan (DiscoverX)) EUB0001581a PAK4
[19] = target: Ribosomal protein S6 kinase alpha-5 (Homo sapiens) (UniProt O75582); assay: Selectivity interaction (KinomeScan (DiscoverX)) EUB0001581a RPS6KA5
[20] = target: Homeodomain-interacting protein kinase 1 (Homo sapiens, UniProt Q86Z02)
[21] = target: Cyclin-dependent kinase 18 (Homo sapiens) (UniProt Q07002); assay: Selectivity interaction (KinomeScan (DiscoverX)) EUB0001581a CDK18
[22] = target: Serine/threonine-protein kinase NIM1 (Homo sapiens) (UniProt Q8IY84); assay: Selectivity interaction (KinomeScan (DiscoverX)) EUB0001581a NIM1K
[23] = target: Myosin light chain kinase 2, skeletal/cardiac muscle (Homo sapiens) (UniProt Q9H1R3); assay: Selectivity interaction (KinomeScan (DiscoverX)) EUB0001581a MYLK2
[24] = tested on: Tyrosine-protein kinase ABL1 (Homo sapiens), P00519 [T315I]; assay: Selectivity interaction (KinomeScan (DiscoverX)) EUB0001581a ABL1
[25] = target: Serine/threonine-protein kinase TNNI3K (Homo sapiens) (UniProt Q59H18); assay: Selectivity interaction (KinomeScan (DiscoverX)) EUB0001581a TNNI3K
[26] = target: Serine/threonine-protein kinase D1 (Homo sapiens) (UniProt Q15139); assay: Selectivity interaction (KinomeScan (DiscoverX)) EUB0001581a PRKD1
[27] = target: Mitogen-activated protein kinase kinase kinase kinase 4 (Homo sapiens, UniProt O95819); assay: Selectivity interaction (KinomeScan (DiscoverX)) EUB0001581a MAP4K4
[28] = target: Tyrosine-protein kinase JAK1 (Homo sapiens, UniProt P23458); assay: Selectivity interaction (KinomeScan (DiscoverX)) EUB0001581a JAK1
[29] = target: Mitogen-activated protein kinase kinase kinase 9 (Homo sapiens) (UniProt P80192); assay: Selectivity interaction (KinomeScan (DiscoverX)) EUB0001581a MAP3K9
[30] = target: Mitogen-activated protein kinase kinase kinase 15 (Homo sapiens) (UniProt Q6ZN16); assay: Selectivity interaction (KinomeScan (DiscoverX)) EUB0001581a MAP3K15
[31] = target: Serine/threonine-protein kinase 24 (Homo sapiens) (UniProt Q9Y6E0); assay: Selectivity interaction (KinomeScan (DiscoverX)) EUB0001581a STK24
[32] = target: Serine/threonine-protein kinase PAK 1 (Homo sapiens) (UniProt Q13153); assay: Selectivity interaction (KinomeScan (DiscoverX)) EUB0001581a PAK1
[33] = target: Serine/threonine-protein kinase OSR1 (Homo sapiens) (UniProt O95747); assay: Selectivity interaction (KinomeScan (DiscoverX)) EUB0001581a OXSR1
[34] = target: Myotonin-protein kinase (Homo sapiens) (UniProt Q09013)
[35] = target: Ribosomal protein S6 kinase alpha-1 (Homo sapiens, UniProt Q15418); assay: Selectivity interaction (KinomeScan (DiscoverX)) EUB0001581a RPS6KA1
[36] = target: Serine/threonine-protein kinase SIK3 (Homo sapiens) (UniProt Q9Y2K2); assay: Selectivity interaction (KinomeScan (DiscoverX)) EUB0001581a SIK3
[37] = target: Mitogen-activated protein kinase 1 (Homo sapiens, UniProt P28482); assay: Selectivity interaction (KinomeScan (DiscoverX)) EUB0001581a MAPK1
[38] = target: Serine/threonine-protein kinase tousled-like 1 (Homo sapiens) (UniProt Q9UKI8); assay: Selectivity interaction (KinomeScan (DiscoverX)) EUB0001581a TLK1
[39] = target: Tyrosine-protein kinase Srms (Homo sapiens) (UniProt Q9H3Y6); assay: Selectivity interaction (KinomeScan (DiscoverX)) EUB0001581a SRMS

## C[C@@H]1C[C@H](N)C[C@H](c2ccncc2NC(=O)c2ccc(F)c(-c3c(F)cccc3F)n2)C1
[1]
  % of control: 100%
[2]
  % of control: 92%
[3]
  % of control: 87%
[4]
  % of control: 100%
[5]
  % of control: 87%
[6]
  % of control: 100%
[7]
  % of control: 100%
[8]
  % of control: 97%
[9]
  % of control: 93%
[10]
  % of control: 100%
[11]
  % of control: 100%
[12]
  % of control: 95%
[13]
  % of control: 99%
[14]
  % of control: 100%
[15]
  % of control: 88%
[16]
  % of control: 38%
[17]
  % of control: 100%
[18]
  % of control: 100%
[19]
  % of control: 100%
[20]
  % of control: 95%
[21]
  % of control: 99%
[22]
  % of control: 85%
[23]
  % of control: 68%
[24]
  % of control: 80%
[25]
  % of control: 100%
[26]
  % of control: 32%
[27]
  % of control: 100%
[28]
  % of control: 99%
[29]
  % of control: 93%
[30]
  % of control: 100%
[31]
  % of control: 99%
[32]
  % of control: 100%
[33]
  % of control: 100%
[34]
  % of control: 95%
[35]
  % of control: 73%
[36]
  % of control: 100%
[37]
  % of control: 100%
[38]
  % of control: 77%
[39]
  % of control: 85%
